This experiment concerns the target recombinant human GST-Syk (Homo sapiens (Human), UniProt P43405). In words: Homogeneous Time-Resolved Fluorescence (HTRF) assay for the recombinant human Syk enzyme. The class given is biochemical. The note with it: read-out: rhSyk IC50, recombinant human GST-Syk 5 pM, ATP 25 μM.

SMILES strings stand for the structures. The match of structure and compound is tentative.

For the compound `Cc1ccnc(Nc2cc(C)cc(-c3ccc(NC(C)(C)C(=O)O)nc3)n2)c1` [2-8], the IC50 amounted to 0.016 µM.
